Source: article doi:10.1101/2023.08.30.555458
Read-outs that look alike come from different tables or passages of the source. No constants are given. Whether binding was seen depends on the method and setting. Binding seen in cells or lysates may run through a third protein. Binding can be weak; no strength is given.

Experiments:
[1] = molecular target: T1, NUP62 (mouse (endogenous in NIH3T3 cells and BMDCs)) (UniProt Q63850); assay: proximity ligation
T1 sequence: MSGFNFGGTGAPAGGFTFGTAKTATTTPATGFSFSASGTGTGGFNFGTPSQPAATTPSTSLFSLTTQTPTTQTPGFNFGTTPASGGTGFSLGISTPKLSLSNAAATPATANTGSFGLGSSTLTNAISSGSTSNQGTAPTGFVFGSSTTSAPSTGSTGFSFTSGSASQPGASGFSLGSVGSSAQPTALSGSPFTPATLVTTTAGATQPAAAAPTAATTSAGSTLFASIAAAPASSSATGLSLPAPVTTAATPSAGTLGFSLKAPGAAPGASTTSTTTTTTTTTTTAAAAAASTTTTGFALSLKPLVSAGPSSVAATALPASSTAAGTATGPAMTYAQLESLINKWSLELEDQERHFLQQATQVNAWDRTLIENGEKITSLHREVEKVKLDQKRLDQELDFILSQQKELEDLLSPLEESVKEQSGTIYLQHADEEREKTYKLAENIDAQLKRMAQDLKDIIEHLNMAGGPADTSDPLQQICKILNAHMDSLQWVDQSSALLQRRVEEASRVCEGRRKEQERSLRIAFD

[2] = molecular target: T1, NUP62 (mouse (endogenous in NIH3T3 cells and BMDCs)); assay: proximity ligation; remark: listed apart in the source

## Moloney murine leukemia virus capsid protein (p30)
[1]
  binding: binds
[2]
  binding: binds
